# Assay results published in the supplement of paper PMC10331698.
# ± gives the standard deviation of the averaged measurements. Small differences around the control level are noise.
# How the values were obtained:
# Experiment in all cases: level (log10 ratio to DMSO vehicle control); higher = higher biomarker level / cell amount than vehicle control
# [1] = compound: O=S(=O)(O)C(F)(F)C(F)(F)C(F)(F)C(F)(F)C(F)(F)C(F)(F)C(F)(F)C(F)(F)F [Potassium perfluorooctanesulfonate]; conditions: 2200 nM; in DMSO
# Method: (§1)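 BioMAP Diversity Plus panel of 12 human primary cell co-culture systems (3C, 4H, LPS, SAg, BT, BF4T, BE3C, CASM3C, HDF3CGF, KF3CT, MyoF, Mphg). Compounds were added 1 h before stimulation and left for 24 h (MyoF 48 h; BT 72 h for soluble read-outs or 6 d for IgG). Biomarkers were read by ELISA, cytotoxicity by SRB, PBMC viability and proliferation by Alamar Blue. Each well value was divided by the mean of 8 DMSO control wells on the same plate and log10 transformed; duplicate blinded samples were tested at 4 concentrations.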
# [2] = compound: NS(=O)(=O)C(F)(F)C(F)(F)C(F)(F)C(F)(F)C(F)(F)C(F)(F)C(F)(F)C(F)(F)F [Perfluorooctanesulfonamide]; conditions: in DMSO
# Method: as §1
# [3] = compound: C=C(C)C(=O)OCC(F)(F)C(F)(F)C(F)(F)C(F)(F)C(F)(F)C(F)(F)C(F)(F)F; conditions: in DMSO
# Method: as §1
# [4] = compound: COC(=O)C(F)(F)C(F)(F)OC(F)(C(F)(F)F)C(F)(F)OC(F)=C(F)F [Methyl perfluoro(3-(1-ethenyloxypropan-2-yloxy)propanoate)]; conditions: in DMSO
# Method: as §1
# Pentafluoropropionamide = compound: NC(=O)C(F)(F)C(F)(F)F [Pentafluoropropionamide]; conditions: 2200 nM; in DMSO
# Method: as §1
# Heptafluorobutyl iodide = compound: FC(F)(F)C(F)(F)C(F)(F)CI [Heptafluorobutyl iodide]; conditions: 2200 nM; in DMSO
# Method: as §1
# [5] = compound: O=S(=O)(OCC(F)(F)F)C(F)(F)C(F)(F)C(F)(F)C(F)(F)F [2,2,2-Trifluoroethyl perfluorobutanesulfonate]; conditions: 2200 nM; in DMSO
# Method: as §1
# [6] = compound: C=CC(=O)OCC(F)(F)C(F)(F)C(F)(F)C(F)(F)C(F)(F)C(F)(F)C(F)(F)F [1H,1H-Perfluorooctyl acrylate]; conditions: 2200 nM; in DMSO
# Method: as §1
# [7] = compound: NC(=O)C(F)(F)C(F)(F)C(F)(F)C(F)F; conditions: in DMSO
# Method: as §1
# [8] = compound: O=C(O)C(F)(F)C(F)(F)C(F)F [4H-Perfluorobutanoic acid]; conditions: in DMSO
# Method: as §1
# [9] = compound: O=S(=O)(F)C(F)(F)C(F)(F)C(F)(F)C(F)(F)C(F)(F)C(F)(F)C(F)(F)C(F)(F)F [Perfluorooctanesulfonyl fluoride]; conditions: 2200 nM; in DMSO
# Method: as §1
# [10] = compound: O=S(=O)(O)C(F)(F)C(F)(F)C(F)(F)C(F)(F)C(F)(F)C(F)(F)C(F)(F)C(F)(F)F [Perfluorooctanesulfonic acid]; conditions: 2200 nM; in DMSO
# Method: as §1
# [11] = compound: C=CC(F)(F)C(F)(F)C(F)(F)C(F)(F)C(F)(F)C(F)(F)C(F)(F)C(F)(F)C=C [1,8-Divinylperfluorooctane]; conditions: in DMSO
# Method: as §1
# [12] = compound: OCC(F)(F)C(F)(F)C(F)(F)C(F)(F)C(F)(F)C(F)F [1H,1H,7H-Dodecafluoro-1-heptanol]; conditions: 2200 nM; in DMSO
# Method: as §1
# [13] = compound: CO[Si](C)(CCC(F)(F)C(F)(F)C(F)(F)C(F)(F)C(F)(F)C(F)(F)F)OC [Dimethoxymethyl((perfluorohexyl)ethyl)silane]; conditions: in DMSO
# Method: as §1
# [14] = compound: FC(F)(F)C(F)(F)C(F)(F)CC1CO1 [1H,1H-Heptafluorobutyl epoxide]; conditions: 2200 nM; in DMSO
# Method: as §1
# [15] = compound: OCCCCC(F)(F)C(F)(F)C(F)(F)C(F)(F)F [4:4 Fluorotelomer alcohol]; conditions: 2200 nM; in DMSO
# Method: as §1
# [16] = compound: O=P(O)(O)CCC(F)(F)C(F)(F)C(F)(F)C(F)(F)C(F)(F)C(F)(F)F [2-(Perfluorohexyl)ethylphosphonic acid]; conditions: 2200 nM; in DMSO
# Method: as §1
Test System,level (log10) [1],level (log10) ([2]; 2200 nM),level (log10) ([2]; 6700 nM),level (log10) ([2]; 20000 nM),level (log10) ([3]; 740 nM),level (log10) ([3]; 2200 nM),level (log10) ([4]; 740 nM),level (log10) ([4]; 2200 nM),level (log10) (Pentafluoropropionamide),level (log10) (Heptafluorobutyl iodide),level (log10) [5],level (log10) [6],level (log10) ([7]; 2200 nM),level (log10) ([7]; 6700 nM),level (log10) ([7]; 20000 nM),level (log10) ([7]; 60000 nM),level (log10) ([8]; 2200 nM),level (log10) ([8]; 6700 nM),level (log10) ([8]; 20000 nM),level (log10) ([8]; 60000 nM),level (log10) [9],level (log10) [10],level (log10) ([11]; 740 nM),level (log10) ([11]; 2200 nM),level (log10) [12],level (log10) ([13]; 740 nM),level (log10) ([13]; 2200 nM),level (log10) [14],level (log10) [15],level (log10) [16]
BT:sIL-17A,0.043 ± 0.055,-0.051 ± 0.038,-0.0315 ± 0.16,0.0435 ± 0.052,-0.0115 ± 0.053,0.0025 ± 0.097,0.039 ± 0.028,-0.0445 ± 0.4,-0.026 ± 0.024,-0.169 ± 0.091,0.096 ± 0.21,-0.0765 ± 0.056,-0.116 ± 0.059,0.059 ± 0.033,0.025 ± 0.19,-0.0885 ± 0.32,-0.0835 ± 0.12,0.067 ± 0.13,-0.085 ± 0.02,-0.158 ± 0.033,-0.112 ± 0.14,0.0815 ± 0.021,0.058 ± 0.21,0.127 ± 0.076,-0.121 ± 0.1,0.0465 ± 0.12,-0.0345 ± 0.012,-0.041 ± 0.099,-0.053 ± 0.1,0.0785 ± 0.032
lMphg:CD106/VCAM-1,-0.003 ± 0.0071,0.0115 ± 0.033,0.006 ± 0.014,0.0365 ± 0.0021,-0.03 ± 0.017,-0.0285 ± 0.049,-0.0115 ± 0.019,0.006 ± 0.0099,0.0015 ± 0.022,-0.021 ± 0.025,-0.018 ± 0.0042,-0.0135 ± 0.005,-0.01 ± 0.034,0 ± 0.013,0.006 ± 0.0014,-0.003 ± 0.017,0.0085 ± 0.0035,0.003 ± 0.0028,0.0125 ± 0.016,0.003 ± 0.014,-0.0125 ± 0.029,0.011 ± 0.0057,-0.004 ± 0.038,-0.011 ± 0.0028,-0.0245 ± 0.037,-0.0245 ± 0.028,-0.0105 ± 0.016,-0.0015 ± 0.018,-0.0035 ± 0.011,-0.0085 ± 0.0021
BF4T:tPA,0.0235 ± 0.088,0.0145 ± 0.028,-0.059 ± 0.013,0.006 ± 0.02,0.005 ± 0.058,-0.008,-0.0145 ± 0.021,-0.014 ± 0.0085,-0.0005 ± 0.025,0.0045 ± 0.023,-0.0095 ± 0.012,0.017 ± 0.021,0.0195 ± 0.053,-0.0005 ± 0.021,-0.0115 ± 0.022,0.0125 ± 0.005,-0.013 ± 0.017,-0.002 ± 0.037,0.003 ± 0.028,0.0475 ± 0.022,0.0035 ± 0.012,0.0375 ± 0.074,0.008 ± 0.03,0.0065 ± 0.012,0.008 ± 0.017,0.008 ± 0.025,0.006 ± 0.018,-0.006 ± 0.027,0.027 ± 0.05,-0.0235 ± 0.033
HDF3CGF:CD54/ICAM-1,-0.001 ± 0.0028,-0.018 ± 0.0014,-0.021 ± 0.0042,-0.88 ± 0.26,-0.017 ± 0.031,-0.0205 ± 0.0064,-0.0045 ± 0.011,-0.0065 ± 0.018,0.014 ± 0.024,-0.004 ± 0.0085,-0.006,-0.022 ± 0.0085,-0.005 ± 0.0042,-0.0045 ± 0.0064,0.0045 ± 0.0035,0.001 ± 0.0071,-0.0085 ± 0.018,0.009 ± 0.021,0.013 ± 0.0099,0.0035 ± 0.005,-0.014 ± 0.0071,-0.015 ± 0.0014,-0.0135 ± 0.039,-0.0045 ± 0.032,0.009 ± 0.018,-0.001 ± 0.0099,-0.013 ± 0.028,-0.0135 ± 0.018,-0.0155 ± 0.015,0.0455 ± 0.047
